Measured data: PubChem BioAssay AID1259254 (NCATS, 2017)

- Screen: 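Finding genes that stop cells copying their DNA twice in one cycle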 (primary screen)
- Cell system: human HCT116 colorectal cancer cells
- Knock-down reagent: single siRNA against human genes
- Duration: 3 days
- Measured: 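Nuclei stained with Hoechst and imaged; cell-cycle phase assigned by DNA content; G2 share scaled per plate, non-targeting siRNA 0%, GMNN siRNA 100%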
- Reading the numbers: G2 robust z-score and G2 cells, % of GMNN control: higher = more G2 cells, more excess DNA replication
- Call rule: 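Active siRNAs have a G2 robust z of 5 or more median absolute deviations over the median, which in these data means about 38% or higher of GMNN control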
This is one part, drawn at random, of about 59,000 reagents tested. In the full data, about 1,550 (2.6%) were called active. 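G2 share is only a proxy for re-replication; each gene was hit by three separate siRNAs, and active genes were retested.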 Entries without a mark were called inactive. Not all columns of the deposit are shown. The record does not give: the amount of reagent.

Silencing of TMEM255A (transmembrane protein 255A) [SID160742774] resulted in: G2 robust z-score 0.0237; G2 cells, % of GMNN control 3.13.
TMEM255A (transmembrane protein 255A) [SID160742775] scored G2 robust z-score 1.2; G2 cells, % of GMNN control 11.4.
After knock-down of TMEM255A (transmembrane protein 255A) [SID160742776], the screen gave G2 robust z-score 0.116; G2 cells, % of GMNN control 3.78.
Silencing of ALKBH5 (alkB homolog 5, RNA demethylase) [SID160742421] resulted in: G2 robust z-score 1.42; G2 cells, % of GMNN control 12.9.
For ALKBH5 (alkB homolog 5, RNA demethylase) [SID160742422], the entry reads G2 robust z-score -0.596; G2 cells, % of GMNN control -1.22.
ALKBH5 (alkB homolog 5, RNA demethylase) [SID160742423] scored G2 robust z-score -0.984; G2 cells, % of GMNN control -3.96.
For C1QL3 (complement C1q like 3) [SID160766324], the values are G2 robust z-score 0.309; G2 cells, % of GMNN control 5.14.
With knock-down of C1QL3 (complement C1q like 3) [SID160766325], the screen gave G2 robust z-score 1.21; G2 cells, % of GMNN control 11.5.
For C1QL3 (complement C1q like 3) [SID160766326] the deposit lists G2 robust z-score 0.447; G2 cells, % of GMNN control 6.11.
OLFML3 (olfactomedin like 3) [SID160745357] showed G2 robust z-score 1.65; G2 cells, % of GMNN control 14.6.
OLFML3 (olfactomedin like 3) [SID160745358] scored G2 robust z-score -0.47; G2 cells, % of GMNN control -0.34.
For OLFML3 (olfactomedin like 3) [SID160745359], the entry reads G2 robust z-score 0.98; G2 cells, % of GMNN control 9.86.
Silencing of PPDPFL [SID160768234] resulted in: G2 robust z-score 1.59; G2 cells, % of GMNN control 14.1.
PPDPFL [SID160768235] showed G2 robust z-score -1.04; G2 cells, % of GMNN control -4.37.
Against PPDPFL [SID160768237], the entry reads G2 robust z-score -0.126; G2 cells, % of GMNN control 2.08.
With knock-down of PMPCA (peptidase, mitochondrial processing subunit alpha) [SID160730832] the results were G2 robust z-score -0.0354; G2 cells, % of GMNN control 2.72.
With knock-down of PMPCA (peptidase, mitochondrial processing subunit alpha) [SID160746153], the record shows G2 robust z-score -1.41; G2 cells, % of GMNN control -6.95.
Against PMPCA (peptidase, mitochondrial processing subunit alpha) [SID160746261], the values are G2 robust z-score -1.35; G2 cells, % of GMNN control -6.52.
KRT13 (keratin 13) [SID160776409] scored G2 robust z-score -0.327; G2 cells, % of GMNN control 0.67.
Against KRT13 (keratin 13) [SID160776410], the values are G2 robust z-score 3.57; G2 cells, % of GMNN control 28.1.
Silencing of KRT13 (keratin 13) [SID160776411] came out at: G2 robust z-score -0.804; G2 cells, % of GMNN control -2.69.
With knock-down of COL3A1 (collagen type III alpha 1 chain) [SID160745766], the record shows G2 robust z-score -0.513; G2 cells, % of GMNN control -0.639.
Knock-down of COL3A1 (collagen type III alpha 1 chain) [SID160745776] came out at: G2 robust z-score -0.478; G2 cells, % of GMNN control -0.396.
After knock-down of COL3A1 (collagen type III alpha 1 chain) [SID160745787], the screen gave G2 robust z-score -0.928; G2 cells, % of GMNN control -3.56.

2 successive entries from above, quoted:
ALKBH5 (alkB homolog 5, RNA demethylase) [SID160742422] | G2 robust z-score: -0.596; G2 cells, % of GMNN control: -1.22
ALKBH5 (alkB homolog 5, RNA demethylase) [SID160742423] | G2 robust z-score: -0.984; G2 cells, % of GMNN control: -3.96
